In patent US20220152188A1, “TLR4-TLR7 LIGAND FORMULATIONS AS VACCINE ADJUVANTS” (The Regents of the University of California, priority 2019, published 2022):
Some of these results come from one statement about several compounds together. At least one compound was matched to its structure with a doubt left.

Tested on: B/Florida/04/2006 (Yamagata lineage)
Experiment: Fluzone vaccination and heterologous B/Florida/04/2006 challenge
Type: in vivo, mice
Settings: 2009-2010 Fluzone plus adjuvant, challenge with 25 mLD50

CCCCCCCCC=CCCCCCCCC(=O)OCC(COP(=O)(O)OCCNC(=O)c1ccc(Cn2c(=O)[nH]c3c(N)nc(OCCOC)nc32)cc1)OC(=O)CCCCCCCC=CCCCCCCCC (stereo not shown) [Compound 1V270] was tested, and the mice survived was “More than 90%”.
